Results published in patent US6410581B1, “Disubstituted biphenyloxazolines” (Bayer Aktiengesellschaft, priority 1997, dated 2002).
Some results were stated once for a whole list of compounds, not compound by compound.

Columns and labels:
[1] = system: caterpillars of the owlet moth (Spodoptera frugiperda); assay: Spodoptera test; type: in vivo; details: active compound concentration 0.0001%, after 7 days
Method: Solvent: 7 parts by weight of dimethylformamide
(§1) Emulsifier: 1 part by weight of alkylaryl polyglycol ether
To produce a suitable preparation of active compound, 1 part by weight of active compound is mixed with the stated amount of solvent and the stated amount of emulsifier, and the concentrate is diluted with water to the desired concentration.
Cabbage leaves (Brassica oleracea) are treated by being dipped into the active compound preparation of the desired concentration and populated with caterpillars of the owlet moth (Spodoptera frugiperda) while the leaves are still moist.
After the desired period of time, the kill in % is determined. 100% means that all the caterpillars have been killed; 0% means that none of the caterpillars have been killed.

[2] = system: greenhouse red spider mite (Tetranychus urticae); assay: Tetranychus test (OP resistant/dip treatment); type: in vivo; details: active compound concentration 0.0001%, after 13 days
Method: Tetranychus Test (OP Resistant/Dip Treatment)
Solvent: 3 parts by weight of dimethylformamide
as §1
To produce a suitable preparation of active compound, 1 part by weight of active compound is mixed with the stated amount of solvent and the stated amount of emulsifier, and the concentrate is diluted to the desired concentration using emulsifier-containing water.
Bean plants (Phaseolus vulgaris) which are heavily infested by all stages of the greenhouse red spider mite (Tetranychus urticae) are dipped into an active compound preparation of the desired concentration.
After the desired period of time, the kill in % is determined. 100% means that all the spider mites have been killed; 0% means that none of the spider mites have been killed.

CCCc1cc(-c2ccc(C3COC(c4c(F)cccc4F)=N3)cc2)ccc1OC(C)C (centres unmarked) [Example I-2, 2-(2,6-Difluorophenyl)-4-(4-(4-propyl-2-oxy)-3-n-propylphenyl)phenyl-2-oxazoline]
kill in % [1]: at least 90% | activity (kill in %) [2]: at least 98%
